According to publication PMC9735685:
Results are given in words; binding and its absence hold for the method and conditions named. Binding can be weak; no strength is given.

Amino acid sequences for entries named in this document (tags omitted). A change or cut given only in a name is not applied to a line headed by its entry.
UniProt A0A0U2JSS8: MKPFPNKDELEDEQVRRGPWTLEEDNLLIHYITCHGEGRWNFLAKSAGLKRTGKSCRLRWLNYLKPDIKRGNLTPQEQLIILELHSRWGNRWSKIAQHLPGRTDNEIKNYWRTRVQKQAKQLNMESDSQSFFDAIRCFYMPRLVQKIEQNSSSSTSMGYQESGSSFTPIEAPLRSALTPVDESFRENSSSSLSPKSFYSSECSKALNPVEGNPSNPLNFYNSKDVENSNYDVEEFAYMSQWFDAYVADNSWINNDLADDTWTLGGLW

Assays:
[1] = molecular target: T1, AtRCAR1 (BK-AtRCAR1) (Arabidopsis) (UniProt Q84MC7); assay: two-hybrid; AD-FtMYB22 (pGADT7) + BK-AtRCARs (pGBKT7) in yeast AH109; growth on SD/-Trp/-Leu/-His/-Ade medium containing 10 uM or 30 uM ABA
T1 sequence: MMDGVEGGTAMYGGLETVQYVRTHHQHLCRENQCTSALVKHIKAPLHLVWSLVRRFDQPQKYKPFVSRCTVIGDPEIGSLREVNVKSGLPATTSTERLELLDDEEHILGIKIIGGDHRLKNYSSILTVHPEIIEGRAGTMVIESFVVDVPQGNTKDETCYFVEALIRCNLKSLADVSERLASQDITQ

[2] = molecular target: T2, AtRCAR2 (BK-AtRCAR2) (Arabidopsis) (UniProt Q1ECF1); assay: as above
T2 sequence: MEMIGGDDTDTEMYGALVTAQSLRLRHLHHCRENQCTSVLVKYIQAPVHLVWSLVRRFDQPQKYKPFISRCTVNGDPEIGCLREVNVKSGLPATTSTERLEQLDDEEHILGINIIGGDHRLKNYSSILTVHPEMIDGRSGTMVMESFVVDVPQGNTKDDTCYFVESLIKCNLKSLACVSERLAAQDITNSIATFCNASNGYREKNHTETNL

[3] = molecular target: T1, AtRCAR1 (BK-AtRCAR1) (Arabidopsis); assay: two-hybrid; AD-FtMYB22 (pGADT7) + BK-AtRCARs (pGBKT7) co-transformed into yeast AH109; growth on SD/-Trp/-Leu/-His/-Ade medium, no ABA added
[4] = molecular target: T2, AtRCAR2 (BK-AtRCAR2) (Arabidopsis); assay: as above

Measured: binding

FtMYB22 (AD-FtMYB22) (from UniProt A0A0U2JSS8)
binds: all assays above
